PubChem BioAssay AID686937 – Drosophila RNAi Screening Center, 2013
The screen tested about 23,000 reagents; below is an unselected part of those with a known target gene and a result. 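Reduced-secretion tags in replicate 1 do not always agree with the z-scores; no criterion for assigning the tags was given.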 Names joined by + are all predicted targets of the reagent. Not all columns of the deposit are shown. No sequences are given here. The record does not give: the amount of reagent.

- Screen: 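Knock-downs that reduce output of a secreted reporter enzyme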 (primary screen)
- Cell system: Drosophila S2 cells expressing secreted horseradish peroxidase
- Reagents: long dsRNA against Drosophila genes
- Duration: about 5.5 days (5 days dsRNA, then 12 h reporter induction)
- Treatment: reporter expression induced after 5 days of dsRNA, read 12 h later; inducer not stated
- Measurement: 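After 5 days of dsRNA and 12 h of reporter induction, medium peroxidase read by chemiluminescence and scored as per-plate z-score; higher values mean more reporter released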
- Reading the numbers: z-score: higher = more reporter secreted into medium

After knock-down of mrt (martik) [DRSC15484], the record shows z-score, replicate 1 = 0.32. Knock-down of CG7406 [DRSC20042] resulted in: z-score, replicate 1 = 0.33. Depletion of eIF3j (eukaryotic translation initiation factor 3 subunit j) [DRSC06107] gave: z-score, replicate 1 = 0.17. Against CG33003 [DRSC22419], the entry reads z-score, replicate 1 = 0.02. Depletion of Antdh (Antennal dehydrogenase) [DRSC20307] gave: z-score, replicate 1 = -0.04. With knock-down of lncRNA:CR41601 (long non-coding RNA:CR41601) [DRSC22158], the screen gave z-score, replicate 1 = 0.21.

For CG16772 [DRSC02516], the entry reads z-score, replicate 1 = 0.43. After knock-down of CG1582 [DRSC19732] the results were z-score, replicate 1 = 0.24. CG8569 [DRSC07214] showed z-score, replicate 1 = 0.2. Depletion of Or19a (Odorant receptor 19a) [DRSC20684] gave: z-score, replicate 1 = 0.57. After knock-down of Met (Methoprene-tolerant) [DRSC20284], the record shows z-score, replicate 1 = 0.18. For CG13159 [DRSC06283], the entry reads z-score, replicate 1 = 0.48.

Against slow (slowdown) [DRSC08589], the values are z-score, replicate 1 = 0.34. For slow (slowdown) [DRSC08590], the entry reads z-score, replicate 1 = -0.07. CG32299 + CG32298 [DRSC07980] showed z-score, replicate 1 = -0.82. For CG32299 + CG32298 [DRSC22354] the deposit lists z-score, replicate 1 = -0.41. Silencing of Iml1 (Increased minichromosome loss 1) [DRSC08249] resulted in: z-score, replicate 1 = 0.33. For CG10376 [DRSC02049], the values are z-score, replicate 1 = -0.03.

With knock-down of CG11286 [DRSC14293], the record shows z-score, replicate 1 = -0.01. CalpA (Calpain-A) [DRSC07352] showed z-score, replicate 1 = 0.39. Depletion of chm (chameau) [DRSC03341] gave: z-score, replicate 1 = 0.31. With knock-down of Osi18 (Osiris 18) [DRSC12181] the results were z-score, replicate 1 = 0.36. With knock-down of CG34028 [DRSC17614] the results were z-score, replicate 1 = 0.48.

3 entries from above, set out differently:
{"target gene":"CG13159","DRSC id":"DRSC06283","z-score, replicate 1":0.48}
{"target gene":"slow (slowdown)","DRSC id":"DRSC08589","z-score, replicate 1":0.34}
{"target gene":"slow (slowdown)","DRSC id":"DRSC08590","z-score, replicate 1":-0.07}

The results go on:
For Mtp (Microsomal triacylglycerol transfer protein) [DRSC03216], the entry reads z-score, replicate 1 = 0.4. CG13408 [DRSC13534] gave z-score, replicate 1 = 0.29. CG13408 [DRSC14584] showed z-score, replicate 1 = 0.16. Or22b (Odorant receptor 22b) [DRSC00765] showed z-score, replicate 1 = 0.2. For DCTN5-p25 (Dynactin 5, p25 subunit) [DRSC03525], the entry reads z-score, replicate 1 = 0.17. Knock-down of CG14340 [DRSC00370] resulted in: z-score, replicate 1 = 0.03.

Nhe3 (Na[+]/H[+] hydrogen exchanger 3) [DRSC03380] showed z-score, replicate 1 = 0.17. Depletion of GluRIA (Glutamate receptor IA) [DRSC11176] resulted in: z-score, replicate 1 = 0.47. CG11590 [DRSC19411] showed z-score, replicate 1 = 0.39. kz (kurz) [DRSC18786] scored z-score, replicate 1 = -0.3. Depletion of Cpr65Ay (Cuticular protein 65Ay) [DRSC08796] came out at: z-score, replicate 1 = 0.02. Depletion of PQBP1 (Poly-glutamine tract binding protein 1) [DRSC14393] gave: z-score, replicate 1 = 0.27.

For CG4615 [DRSC17491] the deposit lists z-score, replicate 1 = 0.44. For CG4615 [DRSC18376] the deposit lists z-score, replicate 1 = -0.43. Rtc1 [DRSC20285] gave z-score, replicate 1 = 0.2. alpha-Est1 (alpha-Esterase-1) [DRSC12612] scored z-score, replicate 1 = 0.37. tobi (target of brain insulin) [DRSC14435] showed z-score, replicate 1 = -0.9.
